# Source: patent US8653072B2, “Estrogen receptor ligands” (Karo Bio AB, priority 2008, dated 2014)
# Amino acid sequences for entries named in this document (tags omitted). Residues count along the entry.
# UniProt Q92731, 255-530: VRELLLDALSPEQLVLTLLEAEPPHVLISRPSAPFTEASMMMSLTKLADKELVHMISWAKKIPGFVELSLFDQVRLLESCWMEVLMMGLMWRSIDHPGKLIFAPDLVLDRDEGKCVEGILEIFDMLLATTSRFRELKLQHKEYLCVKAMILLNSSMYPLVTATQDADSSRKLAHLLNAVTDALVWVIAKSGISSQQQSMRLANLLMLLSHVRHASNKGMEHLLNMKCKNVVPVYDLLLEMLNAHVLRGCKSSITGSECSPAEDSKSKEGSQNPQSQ
# UniProt Q92731, whole entry: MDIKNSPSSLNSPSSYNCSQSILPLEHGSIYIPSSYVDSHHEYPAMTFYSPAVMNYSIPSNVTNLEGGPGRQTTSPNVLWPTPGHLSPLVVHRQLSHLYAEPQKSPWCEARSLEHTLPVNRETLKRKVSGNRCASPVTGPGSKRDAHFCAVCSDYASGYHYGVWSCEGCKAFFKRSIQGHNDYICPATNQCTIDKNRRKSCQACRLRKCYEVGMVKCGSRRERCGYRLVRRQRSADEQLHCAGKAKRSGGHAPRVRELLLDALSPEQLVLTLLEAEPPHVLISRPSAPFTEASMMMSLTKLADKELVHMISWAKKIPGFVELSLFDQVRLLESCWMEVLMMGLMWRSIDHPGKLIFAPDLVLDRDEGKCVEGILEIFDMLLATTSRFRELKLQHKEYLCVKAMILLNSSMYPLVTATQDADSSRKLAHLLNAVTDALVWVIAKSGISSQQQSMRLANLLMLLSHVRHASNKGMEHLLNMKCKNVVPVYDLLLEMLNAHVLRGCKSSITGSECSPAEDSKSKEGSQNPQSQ
# Some entries share one result that the patent states for a list of compounds.
# Target: T1, human ERβ (ERβ-LBD) (Homo sapiens, UniProt Q92731)
# T1 construct: ERβ (ERβ-LBD, pET-N-AT #1, aa 255-530); made in house; host or cells: E. coli BL21 (DE3) pBirA
# Assay: Binding assay 1: estrogen receptor SPA binding assay (3H-E2 displacement), ERβ
# Settings: binding assay 1, ERβ over ERα
# Method: Binding Assay 1: Estrogen Receptor Binding Assay
# The estrogen receptor ligand binding assays are designed as scintillation proximity assays (SPA), employing the use of tritiated estradiol (^3H-E2) and recombinant expressed biotinylated estrogen receptor binding domains. The binding domains of human ERα (ERα-LBD, pET-N-AT #1, aa 301-595) and ERβ (ERβ-LBD, pET-N-AT #1, aa 255-530) proteins are produced in E. coli ((BL21, (DE3), pBirA)) at 22 C in 2×LB medium supplemented with 50 uM biotin. After 3 h of IPTG induction (0.55 mM), cells are harvested by centrifugation at 7300×g for 15 min and cell pellets stored frozen in −20 C. Extraction of ERα and ERβ are performed using 5 g of cells suspended in 50 mL of extraction buffer (50 mM Trig, pH 8.0, 100 mM KCl, 4 mM EDTA, 4 mM DDT and 0.1 mM PMSF). The cell suspension is run twice through a Microfluidizer M-110L (Microfluidics) and centrifuged at 15,000×g for 60 min. The supernatant is aliquoted and stored in −70 C.
# Dilute ERα-LBD or ERβ-LBD extracts in assay buffer (18 mM K2HPO4, 2 mM KH2PO4, 20 mM NasMoO4, 1 mM EDTA, 1 mM TCEP) 1:676 and 1:517 for alpha and beta respectively. […]
# Test compounds are evaluated over a range of concentrations from 157 μM to 37.5 pM. […]
row,SMILES,selectivity for the estrogen receptor β-subtype over the α-subtype in the binding assay
1,"Cc1noc(C)c1-c1c(C(N)=NO)c2ccccc2n1-c1ccc(O)cc1F [Example 235, (Z)-2-(3,5-dimethylisoxazol-4-yl)-1-(2-fluoro-4-hydroxyphenyl)-N′-hydroxy-21H-indole-3-carboximidamide]",≥ 50

# Target: T2, human estrogen receptor beta (hERβ 530) (Homo sapiens, UniProt Q92731)
# T2 construct: expressed in transfected cells
# Assay: Transactivation assay 2: HEK293 cells stably transfected with pERE2-ALP and human estrogen receptor beta
# Assay type: cell-based
# Settings: transactivation assays 1 and 2, ERβ over ERα
# Method: Transactivation Assay 2: Transactivation Assay in Human Embryonic Kidney 293 Cells Stably Transfected with pERE2-ALP and Human Estrogen Receptor Beta
# Generation of stable HEK293 cell lines (CRL-1573; American Type Culture Collection) expressing the reporter vector pERE2-ALP and human estrogen receptor beta (hERβ 530) have been described (Mol Pharmacol 1998, 54, 105-112; Endocrinology 2002, 143, 1558-1561),
# The cells were seeded in 384-well plates at 12 500 cells per well in Ham's F12 Coon's modification (without phenol red) with 10% dextran-coated charcoal treated (DCC) fetal bovine serum (FBS), 2 mM L-glutamine and 50 μg/ml gentamicin. After 24 h incubation (37° C., 5% CO2) the seeding medium was discarded and replaced with 20 μl Ham's F12 Coon's modification (without phenol red) with 1.5 DCC-FCS, 2 mM L-glutamine and supplemented with 100 U/ml penicillin and 100 μg/ml streptomycin. The selected compounds were added to the wells in 12 concentrations ranging from […] to 33 μM. The compounds were dissolved in 100% dimethylsulfoxide (DMSO) and the final concentration of DMSO in the assay was 0.1%. After 72 h incubation (37° C., 5% CO2) the medium was assayed for ALP activity by a chemiluminescence assay; a 10 μl aliquot of the conditioned medium was mixed with 100 μl assay buffer (0.1 M diethanolamine, 1 mM MgCl2) and 0.5 mM disodium 3-(4-methoxyspiro 1,2-dioxetane-3,2′-(5′-chloro)-tricyclo[3.3.1.13,7]decan-4-yl)phenyl phosphate (CSPD) (Tropix, Applied Biosystems) and incubated for 20 min at 37° C. and 15 min at room temperature before measurement of the chemiluminescent signal (one second per well) in a Wallac Microbeta Trilux 1450-028 (PerkinElmer). The ALP activity expressed in LCPS is directly proportional to the level of ALP expressed by the cells. The half maximal effective concentrations of the test compounds (EC50) were calculated from the curves fitted to the concentration-response data with a four parameter logistic model in XLfit software version 2.0 (IDBS) or later.
row,SMILES,selectivity for the estrogen receptor β-subtype over the α-subtype in the transactivation assays
1,"COC(=N)c1c(-c2c(C)noc2C)n(-c2ccc(O)cc2F)c2ccccc12 [Example 260, methyl 2-(3,5-dimethylisoxazol-4-yl)-1-(2-fluoro-4-hydroxyphenyl)-1H-indole-3-carbimidate]",≥ 50
2,"Cc1ccc(C)n1-c1c(/C(N)=N/O)c2ccccc2n1-c1ccc(O)c(F)c1 [Example 268, (Z)-2-(2,5-dimethyl-1H-pyrrol-1-yl)-1-(3-fluoro-4-hydroxyphenyl)-N′-hydroxy-1H-indole-3-carboximidamide]",≥ 50
3,"Cc1noc(C)c1-c1c(C(N)=NO)c2ccccc2n1-c1ccc(O)cc1F [Example 235, (Z)-2-(3,5-dimethylisoxazol-4-yl)-1-(2-fluoro-4-hydroxyphenyl)-N′-hydroxy-21H-indole-3-carboximidamide]",≥ 50
4,"Cc1noc(C)c1-c1c(/C(N)=N/O)c2ccc(F)cc2n1-c1ccc(O)cc1 [Example 271, (Z)-2-(3,5-dimethylisoxazol-4-yl)-6-fluoro-N′-hydroxy-1-(4-hydroxyphenyl)-1H-indole-3-carboximidamide]",≥ 50
5,"Cc1noc(C)c1-c1c(/C(N)=N/O)c2ccccc2n1-c1ccc(O)c(F)c1 [Example 238, (Z)-2-(3,5-dimethylisoxazol-4-yl)-1-(3-fluoro-4-hydroxyphenyl)-N′-hydroxy-1H-indole-3-carboximidamide]",≥ 50
6,"Cc1noc(C)c1-c1c(/C(N)=N/O)c2ccccc2n1-c1ccc(O)c(F)c1F [Example 241, (Z)-1-(2,3-difluoro-4-hydroxyphenyl)-2-(3,5-dimethylisoxazol-4-yl)-N′-hydroxy-1H-indole-3-carboximidamide]",≥ 50
7,"Cc1noc(C)c1-c1c(C(N)=NO)c2ccccc2n1-c1cc(F)c(O)c(F)c1 [Example 237, (Z)-1-(3,5-difluoro-4-hydroxypenyl)-2-(3,5-dimethylisoxazol-4-yl)-N′-hydroxy-1H-indole-3-carboximidamide]",≥ 50
8,"Cc1noc(C)c1-c1c(/C(N)=N/O)c2c(F)cccc2n1-c1ccc(O)cc1F [Example 255, (Z)-2-(3,5-dimethylisoxazol-4-yl)-4-fluoro-1-(2-fluoro-4-hydroxyphenyl)-N′-hydroxy-1H-indole-3-carboximidamide]",≥ 50
9,"Cc1noc(C)c1-c1c(/C(N)=N/O)c2ccccc2n1-c1cc(F)c(O)cc1F [Example 236, (Z)-1-(2,5-difluoro-4-hydroxyphenyl)-2-(3,5-dimethylisoxazol-4-yl)-N′-hydroxy-1H-indole-3-carboximidamide]",≥ 50
